This is one part of the list.

By UniProt entry, the sequences of proteins in these tests, tags left out. Where a name states a change or a piece, a line headed by the entry shows the natural chain unless it says otherwise.
UniProt P82909: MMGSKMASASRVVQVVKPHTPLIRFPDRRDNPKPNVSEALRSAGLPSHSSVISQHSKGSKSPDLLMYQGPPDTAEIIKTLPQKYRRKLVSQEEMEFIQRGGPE
UniProt Q9NVV4: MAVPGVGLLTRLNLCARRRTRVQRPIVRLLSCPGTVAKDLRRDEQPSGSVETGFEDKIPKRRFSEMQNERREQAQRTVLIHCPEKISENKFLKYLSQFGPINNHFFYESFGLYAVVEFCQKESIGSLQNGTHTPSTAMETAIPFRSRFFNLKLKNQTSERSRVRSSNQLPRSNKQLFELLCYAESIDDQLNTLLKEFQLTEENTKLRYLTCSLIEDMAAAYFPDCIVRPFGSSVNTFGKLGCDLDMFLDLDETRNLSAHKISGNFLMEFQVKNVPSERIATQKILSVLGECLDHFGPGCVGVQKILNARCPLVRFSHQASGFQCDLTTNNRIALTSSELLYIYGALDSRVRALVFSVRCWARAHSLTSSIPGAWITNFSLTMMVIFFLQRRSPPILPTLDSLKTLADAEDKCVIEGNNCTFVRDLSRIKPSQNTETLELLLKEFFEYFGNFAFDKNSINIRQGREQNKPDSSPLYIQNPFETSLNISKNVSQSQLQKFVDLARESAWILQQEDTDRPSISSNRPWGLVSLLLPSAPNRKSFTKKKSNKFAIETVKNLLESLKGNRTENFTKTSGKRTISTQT
UniProt O75431: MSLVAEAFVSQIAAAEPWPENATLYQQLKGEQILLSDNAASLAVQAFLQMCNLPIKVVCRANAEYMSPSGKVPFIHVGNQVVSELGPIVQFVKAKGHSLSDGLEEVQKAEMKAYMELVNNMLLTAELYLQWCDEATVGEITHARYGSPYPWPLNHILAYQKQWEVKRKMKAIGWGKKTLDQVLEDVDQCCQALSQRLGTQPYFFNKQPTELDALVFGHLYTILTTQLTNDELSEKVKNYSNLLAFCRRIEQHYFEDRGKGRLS
UniProt Q13330: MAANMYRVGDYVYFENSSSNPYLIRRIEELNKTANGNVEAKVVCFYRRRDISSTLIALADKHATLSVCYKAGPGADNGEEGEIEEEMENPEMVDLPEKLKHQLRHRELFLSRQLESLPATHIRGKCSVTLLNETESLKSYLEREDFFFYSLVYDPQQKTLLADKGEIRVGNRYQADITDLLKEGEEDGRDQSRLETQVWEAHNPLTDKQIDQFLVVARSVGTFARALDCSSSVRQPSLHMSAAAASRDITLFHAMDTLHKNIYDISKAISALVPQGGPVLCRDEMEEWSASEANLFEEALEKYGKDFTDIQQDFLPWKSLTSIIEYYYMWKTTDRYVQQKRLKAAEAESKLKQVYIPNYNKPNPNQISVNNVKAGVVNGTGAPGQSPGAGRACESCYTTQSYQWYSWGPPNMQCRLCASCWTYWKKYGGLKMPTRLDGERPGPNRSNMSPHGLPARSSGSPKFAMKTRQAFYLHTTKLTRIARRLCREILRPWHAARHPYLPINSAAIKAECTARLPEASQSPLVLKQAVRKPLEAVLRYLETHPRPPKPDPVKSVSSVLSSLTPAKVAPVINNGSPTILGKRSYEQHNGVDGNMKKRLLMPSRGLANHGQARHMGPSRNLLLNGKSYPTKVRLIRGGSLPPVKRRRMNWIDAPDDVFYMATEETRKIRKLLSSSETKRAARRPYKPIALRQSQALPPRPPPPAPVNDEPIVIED
UniProt Q96S97: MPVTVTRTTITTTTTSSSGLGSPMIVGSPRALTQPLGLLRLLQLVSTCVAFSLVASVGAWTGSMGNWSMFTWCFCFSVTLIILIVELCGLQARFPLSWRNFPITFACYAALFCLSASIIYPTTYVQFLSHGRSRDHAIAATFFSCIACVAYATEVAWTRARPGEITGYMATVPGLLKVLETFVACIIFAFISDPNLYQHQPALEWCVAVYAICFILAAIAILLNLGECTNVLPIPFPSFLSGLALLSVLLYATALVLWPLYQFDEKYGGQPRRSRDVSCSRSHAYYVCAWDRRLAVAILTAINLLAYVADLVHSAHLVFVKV
UniProt Q9UM54, whole entry, looked up: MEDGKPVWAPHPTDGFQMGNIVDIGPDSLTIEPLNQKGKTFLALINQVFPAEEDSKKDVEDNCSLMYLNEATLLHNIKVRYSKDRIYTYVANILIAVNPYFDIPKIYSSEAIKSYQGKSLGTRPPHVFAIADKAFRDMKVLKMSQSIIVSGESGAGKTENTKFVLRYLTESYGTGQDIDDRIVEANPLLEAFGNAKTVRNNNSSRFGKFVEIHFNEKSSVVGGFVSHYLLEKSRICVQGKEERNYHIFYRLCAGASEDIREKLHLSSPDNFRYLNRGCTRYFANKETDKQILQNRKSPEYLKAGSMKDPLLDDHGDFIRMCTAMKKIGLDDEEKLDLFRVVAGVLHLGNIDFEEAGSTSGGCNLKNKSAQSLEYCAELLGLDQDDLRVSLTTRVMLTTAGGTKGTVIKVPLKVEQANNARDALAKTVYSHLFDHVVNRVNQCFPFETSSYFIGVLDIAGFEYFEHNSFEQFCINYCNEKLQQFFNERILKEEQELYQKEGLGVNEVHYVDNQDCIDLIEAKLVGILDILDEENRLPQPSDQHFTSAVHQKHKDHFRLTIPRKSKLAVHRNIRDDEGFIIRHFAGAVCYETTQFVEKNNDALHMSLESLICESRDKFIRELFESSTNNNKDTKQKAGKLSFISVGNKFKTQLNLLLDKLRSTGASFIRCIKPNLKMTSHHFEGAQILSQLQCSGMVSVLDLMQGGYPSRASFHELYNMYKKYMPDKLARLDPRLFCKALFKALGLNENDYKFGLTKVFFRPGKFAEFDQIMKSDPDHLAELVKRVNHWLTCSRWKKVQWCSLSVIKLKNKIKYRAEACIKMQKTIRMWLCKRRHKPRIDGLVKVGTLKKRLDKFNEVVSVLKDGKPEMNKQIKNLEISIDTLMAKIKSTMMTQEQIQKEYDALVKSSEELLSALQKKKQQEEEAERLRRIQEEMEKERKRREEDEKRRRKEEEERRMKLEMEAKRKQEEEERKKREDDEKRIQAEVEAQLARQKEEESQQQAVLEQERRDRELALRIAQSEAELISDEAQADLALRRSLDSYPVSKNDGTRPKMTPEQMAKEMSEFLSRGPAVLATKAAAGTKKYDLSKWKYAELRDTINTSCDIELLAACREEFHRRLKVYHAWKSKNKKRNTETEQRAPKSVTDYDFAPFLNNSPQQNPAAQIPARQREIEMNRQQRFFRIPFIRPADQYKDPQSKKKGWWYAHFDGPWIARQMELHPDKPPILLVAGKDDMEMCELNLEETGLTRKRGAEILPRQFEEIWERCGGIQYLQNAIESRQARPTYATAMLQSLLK
UniProt P13995: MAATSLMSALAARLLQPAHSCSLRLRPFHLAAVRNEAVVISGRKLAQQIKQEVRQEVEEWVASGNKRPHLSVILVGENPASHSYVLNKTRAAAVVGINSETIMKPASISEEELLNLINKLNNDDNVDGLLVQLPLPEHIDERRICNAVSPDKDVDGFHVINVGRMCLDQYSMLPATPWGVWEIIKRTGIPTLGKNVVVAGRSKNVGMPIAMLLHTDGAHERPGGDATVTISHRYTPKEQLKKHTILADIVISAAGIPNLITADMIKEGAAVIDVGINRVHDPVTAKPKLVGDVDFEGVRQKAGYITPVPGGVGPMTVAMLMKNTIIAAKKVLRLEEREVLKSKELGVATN
UniProt P00156: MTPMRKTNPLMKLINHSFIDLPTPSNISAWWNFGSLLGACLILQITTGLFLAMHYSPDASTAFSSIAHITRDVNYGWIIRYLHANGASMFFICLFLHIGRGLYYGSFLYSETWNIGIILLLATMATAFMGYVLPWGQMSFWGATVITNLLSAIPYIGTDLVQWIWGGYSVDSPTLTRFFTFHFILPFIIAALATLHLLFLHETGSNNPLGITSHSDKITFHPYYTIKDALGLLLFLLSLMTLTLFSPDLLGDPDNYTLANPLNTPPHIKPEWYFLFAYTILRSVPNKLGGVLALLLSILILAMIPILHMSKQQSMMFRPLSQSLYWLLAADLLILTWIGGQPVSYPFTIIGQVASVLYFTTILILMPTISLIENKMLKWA
MTHFD1, A0A384N5Y3, UniProt A0A384N5Y3, whole entry, looked up: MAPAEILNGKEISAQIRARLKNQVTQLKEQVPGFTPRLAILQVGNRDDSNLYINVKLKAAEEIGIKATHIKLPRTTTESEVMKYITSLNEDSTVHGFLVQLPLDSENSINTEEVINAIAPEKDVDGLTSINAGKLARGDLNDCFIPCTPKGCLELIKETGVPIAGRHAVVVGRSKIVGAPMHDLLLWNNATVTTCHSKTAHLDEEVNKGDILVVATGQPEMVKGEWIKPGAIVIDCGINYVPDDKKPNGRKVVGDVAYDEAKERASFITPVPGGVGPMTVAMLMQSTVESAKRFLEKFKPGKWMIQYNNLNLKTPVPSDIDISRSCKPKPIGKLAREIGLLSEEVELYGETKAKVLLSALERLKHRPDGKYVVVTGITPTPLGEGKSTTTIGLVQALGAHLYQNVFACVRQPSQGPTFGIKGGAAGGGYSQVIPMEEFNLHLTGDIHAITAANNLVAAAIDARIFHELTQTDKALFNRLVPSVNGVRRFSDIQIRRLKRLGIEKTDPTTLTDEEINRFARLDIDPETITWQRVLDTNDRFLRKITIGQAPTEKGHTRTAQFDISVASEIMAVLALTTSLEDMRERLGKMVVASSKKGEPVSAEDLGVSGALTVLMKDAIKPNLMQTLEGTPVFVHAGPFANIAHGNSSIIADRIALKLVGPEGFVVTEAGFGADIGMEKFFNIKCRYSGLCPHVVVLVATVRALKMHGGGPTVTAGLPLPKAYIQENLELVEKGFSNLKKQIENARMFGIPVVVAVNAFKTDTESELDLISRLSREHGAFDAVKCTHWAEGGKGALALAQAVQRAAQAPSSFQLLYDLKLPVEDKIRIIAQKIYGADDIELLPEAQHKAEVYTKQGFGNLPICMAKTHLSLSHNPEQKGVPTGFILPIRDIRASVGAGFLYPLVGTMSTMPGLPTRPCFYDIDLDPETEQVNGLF
UniProt P26038, whole entry, looked up: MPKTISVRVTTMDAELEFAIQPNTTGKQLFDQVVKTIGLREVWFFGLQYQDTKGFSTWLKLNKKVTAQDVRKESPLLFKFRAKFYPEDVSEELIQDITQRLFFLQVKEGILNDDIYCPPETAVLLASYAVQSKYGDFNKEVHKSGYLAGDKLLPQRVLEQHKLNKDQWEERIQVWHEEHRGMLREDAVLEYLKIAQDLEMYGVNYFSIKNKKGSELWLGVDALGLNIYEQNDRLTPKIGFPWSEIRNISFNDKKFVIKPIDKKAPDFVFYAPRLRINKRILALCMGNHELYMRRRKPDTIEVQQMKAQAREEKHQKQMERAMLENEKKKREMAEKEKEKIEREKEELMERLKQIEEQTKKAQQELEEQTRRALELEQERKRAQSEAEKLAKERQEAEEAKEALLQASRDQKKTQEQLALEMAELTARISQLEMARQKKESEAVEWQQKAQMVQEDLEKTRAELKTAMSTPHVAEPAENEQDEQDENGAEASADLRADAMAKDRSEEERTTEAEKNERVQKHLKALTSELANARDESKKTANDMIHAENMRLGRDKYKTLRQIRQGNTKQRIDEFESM
UniProt Q9Y217: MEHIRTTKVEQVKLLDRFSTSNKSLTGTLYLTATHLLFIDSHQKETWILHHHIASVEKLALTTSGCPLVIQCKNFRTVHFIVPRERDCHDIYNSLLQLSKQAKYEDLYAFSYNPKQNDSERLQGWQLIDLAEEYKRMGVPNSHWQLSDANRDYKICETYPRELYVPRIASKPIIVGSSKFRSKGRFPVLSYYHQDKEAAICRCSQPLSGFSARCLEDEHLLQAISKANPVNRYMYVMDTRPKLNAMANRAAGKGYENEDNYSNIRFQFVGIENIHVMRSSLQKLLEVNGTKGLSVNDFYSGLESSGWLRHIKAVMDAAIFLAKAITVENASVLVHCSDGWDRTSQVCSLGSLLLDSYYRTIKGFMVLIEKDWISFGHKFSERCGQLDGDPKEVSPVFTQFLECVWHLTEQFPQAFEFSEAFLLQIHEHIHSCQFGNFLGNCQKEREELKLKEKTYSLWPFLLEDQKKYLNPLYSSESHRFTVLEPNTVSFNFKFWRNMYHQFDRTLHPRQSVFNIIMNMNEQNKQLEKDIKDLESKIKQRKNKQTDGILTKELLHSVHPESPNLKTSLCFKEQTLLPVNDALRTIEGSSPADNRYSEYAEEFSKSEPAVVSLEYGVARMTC
UniProt Q96DR8: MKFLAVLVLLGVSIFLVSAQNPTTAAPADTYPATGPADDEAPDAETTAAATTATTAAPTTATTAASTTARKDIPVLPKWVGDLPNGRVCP
UniProt Q99417: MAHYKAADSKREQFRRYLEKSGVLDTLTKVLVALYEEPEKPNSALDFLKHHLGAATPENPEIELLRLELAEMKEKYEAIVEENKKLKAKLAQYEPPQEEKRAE
UniProt P14649: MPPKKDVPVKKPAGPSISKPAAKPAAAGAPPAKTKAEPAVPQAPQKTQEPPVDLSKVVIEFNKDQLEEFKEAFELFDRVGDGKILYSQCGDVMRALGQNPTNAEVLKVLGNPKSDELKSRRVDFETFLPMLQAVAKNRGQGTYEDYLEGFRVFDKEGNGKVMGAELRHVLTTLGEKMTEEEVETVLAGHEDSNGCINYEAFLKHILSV

Compound in one test: Cc1ncc(-c2ccnc(Nc3ccc(S(C)(=O)=O)cc3)n2)n1C(C)C
The test can be described thus: log2 fold change, soluble protein after heating vs DMSO (PISA); higher = thermal stabilisation; K562 cells, 10 uM, 30 min; active = over 0.2 and 3.5 SD of the protein, either way, in both replicates (recomputed). The gist of the method:
(§1)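 Soluble protein was quantified by TMTpro 16plex LC-MS/MS after channel sums were equalised. It was obtained as the supernatant after 21,000xg for 90 min from pooled aliquots of K562 cells (2×10^6 cells/mL, 10 μM compound, 30 min) heated for 3 min across 48°C-58°C and extracted in PBS with 0.5% NP-40 at 4°C. Thermal stability values are relative to control samples and come from duplicates. They are given as log2 fold changes.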
On to MTM1 (UniProt Q13496), for which the log2 fold change is inactive: -0.049.
The same measure, in the same setting: under MRPS36 (UniProt P82909) stands inactive: -0.02; under MTRR isoform 1 (UniProt Q9UBK8), inactive: 0.035; under MRPS24 (UniProt Q96EL2), inactive: 0.028.
On the same count and under the same terms, under MTPAP (UniProt Q9NVV4) stands inactive: 0.06; under MRPL9 (UniProt Q9BYD2), inactive: 0.007; under MRPS30 (UniProt Q9NP92), inactive: 0.036.
The same measure, in the same setting: the figure for MTMR14 (UniProt Q8NCE2) is inactive: 0.016.
Consider MTX2 (UniProt O75431), for which the log2 fold change is inactive: -0.01.
Still for that read-out and setting: under MTA1 (UniProt Q13330) stands inactive: -0.013; under MYADM (UniProt Q96S97), inactive: 0.043; under MTOR (UniProt P42345), inactive: -0.069.
Same read-out and setting: under MYO6 isoform 6 (UniProt Q9UM54) stands inactive: 0.002.
Same read-out and setting: under MYH9 (UniProt P35579) stands inactive: -0.002; under MRPS18A isoform 2 (UniProt Q9NVS2), inactive: 0.028; under MRS2 (UniProt Q9HD23), inactive: -0.019.

Compound in the next test: Cn1cc(-c2ccc3c(c2)CCN3C(=O)Cc2cccc(C(F)(F)F)c2)c2c(N)ncnc21
The description is as above. The gist of the method: as §1
For MTCH1 (UniProt Q9NZJ7), the log2 fold change was inactive: 0.042.
The same measure, in the same setting: under MTHFD2 (UniProt P13995) stands inactive: 0.019; under MT-CYB (UniProt P00156), inactive: 0.106; under MYH11 isoform 2 (UniProt P35749), inactive: 0.039.
Same read-out and setting: the figure for MT-ATP6 (UniProt P00846) is inactive: -0.024; for MYO1D (UniProt O94832) it is inactive: -0.121.
Still for that read-out and setting: under MTHFD1, A0A384N5Y3 stands inactive: 0.087.
Take MRRF (UniProt Q96E11): the log2 fold change is inactive: 0.042.
On the same count and under the same terms, under MTMR12 (UniProt Q9C0I1) stands inactive: 0.015; under MSN (UniProt P26038), inactive: 0.038.
Same read-out and setting: under MSMO1 (UniProt Q15800) stands inactive: 0.022; under MRPS10 (UniProt P82664), inactive: 0.002.
With MTMR6 (UniProt Q9Y217), the log2 fold change is inactive: 0.036.
As for MUCL1 (UniProt Q96DR8), the log2 fold change is inactive: 0.347.
The same measure, in the same setting: the figure for MRPS2 (UniProt Q9Y399) is inactive: 0.043; for MRPS15 (UniProt P82914) it is inactive: 0.05.
Still for that read-out and setting: under MRPS27 isoform 2 (UniProt Q92552) stands inactive: 0.022; under MSRB2 (UniProt Q9Y3D2), inactive: 0.034.
The same measure, in the same setting: the figure for MYCBP (UniProt Q99417) is inactive: 0.009; for MRPS11 (UniProt P82912) it is inactive: 0.02.
Consider MRPS33 (UniProt Q9Y291), for which the log2 fold change was inactive: -0.033.
The same measure, in the same setting: under MRTFA (UniProt Q969V6) stands inactive: -0.113; under MYL6B (UniProt P14649), inactive: 0.045; under MTM1 (UniProt Q13496), inactive: 0.045.
Still for that read-out and setting: the figure for MRPS36 (UniProt P82909) is inactive: -0.021; for MTRR isoform 1 (UniProt Q9UBK8) it is inactive: 0.047.
Same read-out and setting: under MRPS24 (UniProt Q96EL2) stands inactive: -0.141.
MTPAP (UniProt Q9NVV4): the log2 fold change was inactive: -0.163.
The same measure, in the same setting: the figure for MRPL9 (UniProt Q9BYD2) is inactive: -0.098.
For MRPS30 (UniProt Q9NP92), the log2 fold change was inactive: -0.125.
As for MTMR14 (UniProt Q8NCE2), the log2 fold change was inactive: -0.006.
Same read-out and setting: under MTX2 (UniProt O75431) stands inactive: 0.023; under MTA1 (UniProt Q13330), inactive: -0.017; under MYADM (UniProt Q96S97), inactive: -0.014.
On the same count and under the same terms, under MTOR (UniProt P42345) stands inactive: 0.004.
Same read-out and setting: under MYO6 isoform 6 (UniProt Q9UM54) stands inactive: 0.064.
As to MYH9 (UniProt P35579), the log2 fold change was inactive: 0.059.
As to MRPS18A isoform 2 (UniProt Q9NVS2), the log2 fold change was inactive: -0.197.
Same read-out and setting: under MRS2 (UniProt Q9HD23) stands inactive: -0.025.

(Values after the supplement of paper PMC10849652.)
